Measured values reported in PubChem BioAssay AID588499 (NMMLSC, 2011).
Among all 360,000 compounds or so, about 610 (0.17%) were called active. Inconclusive results, whose numbers are uncertain, are shown with a selection of clear calls. Rule as the data show it: active = inhibition above about 30%; inconclusive = no clear call, values can overlap the other calls; inactive = below that.

These molecules were tested on Botulinum neurotoxin type A light chain protease (Clostridium botulinum A str. ATCC 3502) (assay: blockers of BoNT/A LC substrate cleavage – biochemical, flow cytometry, MLPCN library, primary screen (AID 588499; also: plate controls were buffer without enzyme for full effect and enzyme alone for no effect)). Conditions: multiplex microsphere protease substrate cleavage, at 10 µM, active compounds read high.
For `COC(=O)c1c(NC(=O)C2CCC2)sc(C(=O)N(C)C)c1C`, the inhibition was inconclusive: -4.6%. With `CCC1Nc2ncnc(N3CCc4ccccc4C3)c2N(Cc2ccc(Cl)cc2)C1=O` (configuration not stated) the inhibition was inactive: 0.6%. For `CCN(CCCNC(=O)c1[nH]c(C)c(C(C)=O)c1C)c1ccccc1`, the inhibition was inactive: -0.7%. With `Cc1c(Cl)cccc1NC(=S)NCc1ccc2c(c1)OCO2` the inhibition was inactive: -1.1%. In the case of `CCOc1ccc(/C(O)=C2\C(=O)C(=O)N(CCOCCO)C2c2ccccc2OC)cc1` (configuration not stated), the inhibition is reported as inconclusive: -0.5%. In the case of `CNC(=O)CCN(Cc1ccco1)S(=O)(=O)c1ccc(OC)c(OC)c1`, the inhibition is reported as inconclusive: 5.9%. With `O=C(Nc1cccc(C(F)(F)F)c1)c1cccnc1` the inhibition was inconclusive: 2.9%. For `O=C1COc2ccc(C(=O)COC(=O)CCCOc3ccccc3)cc2N1`, the inhibition was inactive: 0.6%. `COc1ccc(C(C)=O)cc1COC(=O)Cc1n[nH]c(=O)c2ccccc12` was tested, and the inhibition was inconclusive: -7.2%. `CCc1ccc(-n2ccc(=O)c(C(=O)O)n2)cc1` was tested, and the inhibition was inactive: -1.9%. `Cc1nn(C)c(Oc2ccccc2)c1CCNC(=O)CCl` was tested, and the inhibition was inactive: -0.2%. `CC(C)c1ccc(S(=O)(=O)N2CCN(CC(=O)Nc3ccc(Cl)cc3F)CC2)cc1` was tested, and the inhibition was inconclusive: -2.4%. With `COC(=O)C1CCN(C(=O)/C=C/c2ccc3c(c2)OCO3)CC1` the inhibition was inactive: 1.5%. For `CCOC(=O)c1cc(C#N)c(Nc2ccccc2OC)nc1C(F)(F)F`, the inhibition was inconclusive: -8.4%. With `CCOC(=O)Cc1csc(NS(=O)(=O)c2ccc3c4c(cccc24)C(=O)N3CC)n1` the inhibition was inactive: -0.5%. `Cc1cc(C)c(NC2=NS(=O)(=O)c3ccccc32)c(C)c1` was tested, and the inhibition was inconclusive: 4.1%. For `CCOc1ccccc1C(=O)Nc1ccccc1C(N)=O`, the inhibition was inconclusive: 2.5%. For `COc1nc(NCc2cccnc2)nc(NC2CCCCC2)n1`, the inhibition was inactive: -0.4%. `CCC(Sc1nc2ccccc2c(=O)n1CC1CCCO1)C(=O)NCc1cccnc1` (configuration not stated) was tested, and the inhibition was inconclusive: -1.4%. In the case of `Cn1c(=O)n(C)c2cc(S(=O)(=O)N3CCOCC3)ccc21`, the inhibition is reported as inconclusive: -0.7%. In the case of `O=Cc1ccc(Sc2nnc(-c3ccccc3)o2)c([N+](=O)[O-])c1`, the inhibition is reported as inconclusive: 4.8%. In the case of `Cc1ccc(CN(C)C(=O)CSc2nnc3n2CCCCC3)c(C)c1`, the inhibition is reported as inactive: 0.3%. For `O=C(COc1ccccc1)N(Cc1cccs1)C1CCS(=O)(=O)C1` (configuration not stated), the inhibition was inconclusive: -1.1%. `COC(=O)/C(C#N)=C/c1c(Oc2cccc(C)c2C)nc2ccccn2c1=O` was tested, and the inhibition was inconclusive: -9.3%. With `Cc1ccc(-c2nc(CCN3C(=O)c4ccccc4C3=O)cs2)cc1` the inhibition was inconclusive: -2.2%. For `Cc1cc2sc3nc(=O)n(-c4ccccc4)c(=O)n3c2cc1C`, the inhibition was inconclusive: 5.2%. `COc1cc2nc(C3CC3)n(NC(=O)c3ccc(F)cc3)c(=O)c2cc1OC` was tested, and the inhibition was inconclusive: -3.7%. In the case of `O=C(NCc1cccs1)c1nc2c(nnn2Cc2ccc(F)cc2)c(=O)[nH]1`, the inhibition is reported as inactive: -0.1%. `CC(=O)N(C)N(C)c1cc(C)nc(N)n1` was tested, and the inhibition was inconclusive: -5.8%. For `CCOC(=O)/C(C#N)=C/c1c(Oc2cccc(C)c2)nc2ccccn2c1=O`, the inhibition was inconclusive: -4.5%. For `O=C(CNS(=O)(=O)c1ccccc1)OCC(=O)c1ccc(OC(=O)c2ccccc2)cc1`, the inhibition was inconclusive: 5.8%. For `O=[N+]([O-])c1ccc(N2CCN(C(=S)Nc3ccc(F)cc3)CC2)cc1`, the inhibition was inactive: 0.3%. With `CC1CCN(C(=O)COC(=O)Cn2cnc3c2c(=O)n(C)c(=O)n3C)CC1` the inhibition was inconclusive: -4.1%. For `O=C(Nc1c(F)cccc1F)C1CCN(C(=O)c2cccs2)CC1`, the inhibition was inactive: 0.9%. For `O=C(CCN1CCc2ccccc21)c1ccc2c(c1)OCCO2`, the inhibition was inconclusive: 2.9%. `COc1ccc(-c2c(C)nn(-c3ccccc3)c2N)cc1` was tested, and the inhibition was inconclusive: 4.2%. In the case of `O=C(O)C1CC=CCC1C(=O)Nc1cccc(C(=O)N2CCCCC2)c1` (configuration not stated), the inhibition is reported as inconclusive: -2.7%. With `COc1cc(C(C#N)N2CCOCC2)ccc1O` (configuration not stated) the inhibition was inactive: -3.3%. `Cc1cc(C)n2nc(NCc3ccccc3)nc2n1` was tested, and the inhibition was inconclusive: -0.8%. `COc1cc(F)ccc1-c1csc(C(NC(C)=O)c2cccc(F)c2)n1` (configuration not stated) was tested, and the inhibition was inactive: -0.2%. In the case of `COc1ccc(C(C(=O)NC2CCCC2)N2CCc3ccccc32)cc1` (configuration not stated), the inhibition is reported as inconclusive: 1.9%. `CCN(CC)C(=O)C1=C(C)N(Cc2ccc(F)cc2)C(=O)C(CC(=O)NCCN2CCOCC2)C1` (configuration not stated) was tested, and the inhibition was inactive: -0.2%. `Cc1cccc(N2CCN(C(=S)c3ccc4c(c3)OCO4)CC2)c1` was tested, and the inhibition was inactive: -0.4%. In the case of `CCCC(=O)Nc1ccc2c(c1)nc(CCN1CCCCC1)n2C`, the inhibition is reported as inconclusive: 10%. `CC(C)CNC(=O)C(=O)NCC1OCCN1S(=O)(=O)c1cccs1` (configuration not stated) was tested, and the inhibition was inactive: -0.3%. `CN(Cc1ccccc1)Cc1ccccc1F` was tested, and the inhibition was inconclusive: -1.7%. `CCC(=O)N(Cc1cc(=O)[nH]c2ccccc12)c1ccc(OC)cc1` was tested, and the inhibition was inactive: 1.7%. With `NC(CCc1ccccc1)c1csc(Nc2cnccn2)n1` (configuration not stated) the inhibition was inactive: -0.2%. `CCc1ccc(C(=O)C[n+]2cccc3cc(OC)ccc32)cc1` was tested, and the inhibition was inactive: -2.2%. With `COc1ccc(C(N)c2csc(Nc3nncc4ccccc34)n2)cc1` (configuration not stated) the inhibition was inactive: 1%. In the case of `Cc1nn(-c2ccc(N3CCOCC3)nn2)c(C)c1CCC(=O)NCc1ccc(F)cc1`, the inhibition is reported as inactive: 1%. In the case of `COc1ccc(OCc2nnc(SCC(N)=O)n2-c2ccccc2OC)cc1`, the inhibition is reported as inactive: 0.6%. For `Nn1c(SCC(=O)Nc2ccc3c(c2)OCO3)nnc1-c1ccccc1`, the inhibition was active: 45.2%. For `CCN(CC)C(=O)c1cccc(-c2csc(C(C)(NC(C)=O)c3ccc(OC)cc3)n2)c1` (configuration not stated), the inhibition was inactive: -0.3%. For `COc1cccc(-c2ccc(=O)n(CC(=O)Nc3cc4c(cc3NC(C)=O)OCCO4)n2)c1`, the inhibition was inconclusive: 0%. In the case of `O=C(O)c1cc(NCc2ccccc2C(F)(F)F)ccc1N1CCOCC1`, the inhibition is reported as inconclusive: 0.4%. In the case of `CCOC(=O)c1sc(NC(=O)CSc2n[nH]c(-c3ccc(Cl)cc3Cl)n2)c(C#N)c1C`, the inhibition is reported as inconclusive: -2.4%. For `COc1ccccc1-c1c(NC(=O)C(C)C)n(C)c2ccccc2c1=O`, the inhibition was inconclusive: -45%. In the case of `COc1ccc(NC2=Nc3ccccc3N3C2=Nc2c(c(C)nn2-c2ccc(C)cc2)C3c2cccnc2)cc1` (configuration not stated), the inhibition is reported as inconclusive: 152%. `Cc1cccc(N(C)S(=O)(=O)c2ccc3[nH]c(=O)c(=O)[nH]c3c2)c1` was tested, and the inhibition was inconclusive: -3.7%. In the case of `C=CCn1c(NCc2ccccc2OC)nc2ccccc21`, the inhibition is reported as inconclusive: -5.2%. In the case of `NC(=O)c1cc(S(=O)(=O)NC2CCCCC2)co1`, the inhibition is reported as inconclusive: -0.6%. With `COc1ccc(C(=O)COC(=O)CNC(=O)c2ccccc2)cc1F` the inhibition was inactive: -1.1%. With `CCOc1ccc(C2CC(c3ccccc3)Nc3nc(N)nn32)cc1` (configuration not stated) the inhibition was inconclusive: 4.2%. With `Cc1cc(S(=O)(=O)NCCC2=CCCCC2)ccc1Br` the inhibition was inconclusive: 5.4%. In the case of `Cc1ccc(C)c2nc(N3CCCC3)c(C#N)cc12`, the inhibition is reported as active: 36.2%. In the case of `CSc1nncn1/N=C/c1ccccc1F`, the inhibition is reported as inconclusive: -3.1%. With `O=c1[nH]c(CN2CCN(c3ccc([N+](=O)[O-])cc3)CC2)nc2ccsc12` the inhibition was inactive: 0.1%. In the case of `COc1ccc(Cc2nnc(NC(=O)C3CCN(C(=O)c4ccco4)CC3)s2)cc1`, the inhibition is reported as inactive: -0.5%. With `CCOC(=O)N1CCN(C(=O)c2ccc(CS(=O)(=O)c3ccccc3OC)o2)CC1` the inhibition was inconclusive: 4.9%. In the case of `CCCCOc1ccc(C(=O)NCc2ccncc2)cc1`, the inhibition is reported as inconclusive: 3.5%. `O=C(Cc1c[nH]c2ccccc12)N1CCN(S(=O)(=O)c2cccc(Cl)c2Cl)CC1` was tested, and the inhibition was inactive: 0.2%. With `Cn1c(Cl)cnc1C(O)(c1ccccc1)c1ccccc1` the inhibition was inconclusive: -9.9%. With `COc1ccc(/C=C/C(=O)NC2CCCCC2C)cc1` (configuration not stated) the inhibition was inconclusive: -1%. `O=C(CSc1nc2ccccc2c(=O)[nH]1)Nc1ccc(S(=O)(=O)N2CCCC2)cc1` was tested, and the inhibition was inconclusive: -3.3%. `O=C(Nc1nccs1)Oc1ccccc1` was tested, and the inhibition was inconclusive: 4.2%. For `CCc1nn(C(C)C(=O)NCc2cccc(Cl)c2)c(=O)c2cc3occc3n12` (configuration not stated), the inhibition was inactive: 3.1%. With `CC(C)CC(NC(=O)OC(C)(C)C)C(=O)O` (configuration not stated) the inhibition was inactive: -0.4%. For `CCCC[n+]1ccn(-c2nc3ccccc3nc2[N-]S(=O)(=O)c2cccs2)c1`, the inhibition was inconclusive: 18.2%. In the case of `CC(C)(C)c1cc(C(=O)NNC(=O)c2ccc(C(F)(F)F)cc2)no1`, the inhibition is reported as inconclusive: -8.7%. With `Cc1oc(=O)c(NC(=O)c2cccc(Cl)c2)cc1C(=O)c1ccccc1` the inhibition was inconclusive: 1.8%. In the case of `Clc1ccc(OCCOCCN2CCCCC2)c(Br)c1`, the inhibition is reported as inconclusive: 1.6%. With `CSCCC(NC(=O)c1ccco1)C(=O)OCC(=O)N(Cc1ccccc1)C(C)(C)C` (configuration not stated) the inhibition was inconclusive: 3.2%. `CCC(C)Nc1nc(-c2c[nH]c3ccccc23)cs1` (configuration not stated) was tested, and the inhibition was inconclusive: 41.8%. With `CN1CCc2c(sc(NC(=O)c3ccc4ccccc4c3)c2C(N)=O)C1` the inhibition was inconclusive: 2.1%. `COc1ccc(/C(C)=N/NC(=S)Nc2cc(C)ccc2C)cc1` was tested, and the inhibition was inactive: -0.3%. `O=C(Nc1ccc(N2CCOCC2)cc1N1CCOCC1)c1ccc(Cl)cc1` was tested, and the inhibition was inactive: 0.2%. In the case of `CC(C)(C)Cc1c(-c2ccc(F)cc2)nc2ccc(Br)cn12`, the inhibition is reported as inactive: 0.3%. With `CCn1nnnc1SCC(=O)NC1Cc2ccccc2C1` the inhibition was inconclusive: -11.5%. `O=C1C2CC=CCC2C(=O)N1c1n[nH]c(CCc2ccccc2)n1` (configuration not stated) was tested, and the inhibition was inconclusive: 10.6%. For `Cc1ccc(C)c(NC(=O)CNS(=O)(=O)c2ccccc2)c1`, the inhibition was inconclusive: -2.1%. In the case of `CCOC(=O)C1CCCN(CCC(=O)Nc2c(C(=O)OC)[nH]c3cc(OC)ccc23)C1` (configuration not stated), the inhibition is reported as inconclusive: 2.7%.
